Measurements taken from PubChem BioAssay (NCATS).
Several values for one entry are separate records, joined by “and”; a condition that tells them apart may be missing. Equal entries are not always repeated. The inconclusive results got no clear call from the source; some entries with a clear call stand among them for comparison. For part of these data: Where the call is inconclusive, the potency comes from a doubtful curve fit. For part of these data: A note “side channel” means that the fit belongs to a control or component signal, not to the main read-out. Activity calls are given as the source filed them. Unless noted, calls follow the shape of the dose curve; as a rule, active = well fitted curve in the direction sought with a large enough effect; inconclusive = small, poorly fitted or top-dose-only effect, or another doubt; inactive = no such curve, though single readings can be large; an effect the other way counts as inactive or inconclusive.

By UniProt entry, the sequences of proteins in these tests, tags left out. Where a name states a change or a piece, a line headed by the entry shows the natural chain unless it says otherwise.
UniProt P07947, whole entry, looked up: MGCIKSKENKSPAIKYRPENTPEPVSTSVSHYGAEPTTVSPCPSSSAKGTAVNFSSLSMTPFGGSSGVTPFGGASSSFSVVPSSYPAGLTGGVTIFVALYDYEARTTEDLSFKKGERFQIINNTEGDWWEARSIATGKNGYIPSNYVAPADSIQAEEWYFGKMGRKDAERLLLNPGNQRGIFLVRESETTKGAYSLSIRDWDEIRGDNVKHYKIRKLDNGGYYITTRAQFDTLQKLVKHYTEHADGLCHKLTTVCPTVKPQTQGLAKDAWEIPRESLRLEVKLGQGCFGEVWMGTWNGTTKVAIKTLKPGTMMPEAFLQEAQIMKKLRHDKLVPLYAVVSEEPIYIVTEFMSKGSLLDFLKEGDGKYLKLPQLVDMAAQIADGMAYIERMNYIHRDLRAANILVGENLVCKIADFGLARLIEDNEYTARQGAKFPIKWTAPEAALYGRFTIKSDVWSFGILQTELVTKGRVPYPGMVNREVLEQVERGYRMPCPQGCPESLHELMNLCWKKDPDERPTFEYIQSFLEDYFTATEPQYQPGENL
UniProt P07378: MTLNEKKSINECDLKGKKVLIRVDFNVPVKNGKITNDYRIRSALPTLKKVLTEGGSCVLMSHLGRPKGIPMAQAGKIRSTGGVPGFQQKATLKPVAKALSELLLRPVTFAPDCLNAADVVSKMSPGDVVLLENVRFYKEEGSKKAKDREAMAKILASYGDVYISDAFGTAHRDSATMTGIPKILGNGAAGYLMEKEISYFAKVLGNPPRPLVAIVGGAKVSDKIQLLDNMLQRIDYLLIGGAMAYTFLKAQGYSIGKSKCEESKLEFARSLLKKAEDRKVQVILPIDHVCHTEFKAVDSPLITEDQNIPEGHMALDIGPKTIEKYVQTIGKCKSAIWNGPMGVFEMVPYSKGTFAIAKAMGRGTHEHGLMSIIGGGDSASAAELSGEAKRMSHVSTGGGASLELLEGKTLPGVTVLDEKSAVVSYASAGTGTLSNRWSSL
UniProt P51449: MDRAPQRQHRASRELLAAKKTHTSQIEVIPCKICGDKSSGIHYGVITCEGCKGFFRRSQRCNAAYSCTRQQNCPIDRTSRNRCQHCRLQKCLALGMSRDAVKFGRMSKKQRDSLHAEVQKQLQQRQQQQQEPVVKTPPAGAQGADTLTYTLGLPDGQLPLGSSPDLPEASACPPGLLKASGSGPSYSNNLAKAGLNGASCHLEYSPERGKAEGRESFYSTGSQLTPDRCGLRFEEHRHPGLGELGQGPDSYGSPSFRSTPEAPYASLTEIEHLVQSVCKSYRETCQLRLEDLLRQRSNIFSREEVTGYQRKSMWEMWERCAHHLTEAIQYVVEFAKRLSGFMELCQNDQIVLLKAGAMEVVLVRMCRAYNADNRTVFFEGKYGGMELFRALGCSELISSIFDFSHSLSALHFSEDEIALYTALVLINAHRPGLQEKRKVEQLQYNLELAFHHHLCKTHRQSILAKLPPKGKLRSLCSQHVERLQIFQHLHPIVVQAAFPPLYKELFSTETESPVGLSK

Columns and labels:
[1] = HTS Assay for Allosteric Antagonists of the Human D2 Dopamine Receptor: Hit Validation in HTRF (AID 624455); conditions: Cells stably expressing D1 dopamine receptor, inhibition mode; also: potency is read from the fitted curve at half-maximal effect
How it was run: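 HTRF read-out; cells stably expressing D1 receptor; hits scored for inhibition of D1-mediated response. Primary screen: calcium flux, force-coupled inducible Hek293 Trex D2 line, antagonism vs EC80 dopamine.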

[2] = qHTS Assay for Identification of Small Molecule Agonists for NFkB Signaling Pathway. (AID 624478);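 as to activation: compounds tested together with TNF alpha at its EC50 of 10 pM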
How it was run: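 Read-out: 460/530 nm emission at 405 nm excitation after 2 h LiveBLAzer loading; ME-180 NFkB-bla reporter cells exposed 5 h at 37 C to compounds with 10 pM TNF alpha final.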

[3] = qHTS Assay for Identification of Small Molecule Antagonists for NFkB Signaling Pathway. (AID 624479; calls by dose curve;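 also: pathway stimulated with TNF alpha; potency is read from the fitted curve at half-maximal effect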)
[4] = target: Tyrosine-protein kinase Yes (Homo sapiens) (UniProt P07947); assay: qHTS for small molecule inhibitors of Yes1 kinase: Primary Screen (AID 686947); also: nearly all actives have a fitted effect of over 60% in size; also: potency is read from the fitted curve at half-maximal effect
How it was run: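 In this qHTS format, inhibition is expressed relative to DMSO controls with enzyme (maximum) and without enzyme (minimum). The 60 min room-temperature reaction uses 0.1 mM ATP, with ADP detected by luminescence.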

[5] = Cytotoxicity counterscreen for NFkB agonists and antagonists (AID 624476);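 also: cells exposed to compound for 48 hours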; also: potency is read from the fitted curve at half-maximal effect
[6] = Cell Proliferation Assay against the TMD8 Cell Line (Caspase readout at 16 hrs) (AID 651712); also: potency is read from the fitted curve at half-maximal effect
How it was run: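 Caspase-Glo luminescence after 16 h compound exposure of TMD8 cells, 37 °C, 5% CO2. Medium: RPMI without phenol red, 5% FBS. Normalisation: DMSO = 0%, bortezomib 9.2 uM final = 100%.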

[7] = Cell Proliferation Assay against the TMD8 Cell Line (Caspase readout at 8 hrs) (AID 651713); conditions: TMD8 lymphoma cells, caspase activation luminescence; caspase activation: at 46.1 µM (top of the series); also: potency is read from the fitted curve at half-maximal effect
How it was run: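 Apoptosis readout: caspase 3/7 luminescence (Caspase-Glo), 15 min RT. Cells: TMD8, 500/well, RPMI + 5% FBS, no phenol red. Exposure 8 h, 37C. % activity vs DMSO = 0, bortezomib 9.2 uM final = 100.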

[8] = target: Phosphoglycerate kinase, glycosomal (Trypanosoma brucei brucei) (UniProt P07378); assay: qHTS for inhibitors of Phosphogylcerate Kinase: Hit Validation Screen (AID 686980); conditions: TbPGK coupled GAPDH assay, Kinase-Glo luminescence; also: potency is read from the fitted curve at half-maximal effect; nearly all actives have a fitted effect of over 65% in size
How it was run: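 Recombinant glycosomal PGK reaction used 1,3-bisphosphoglycerate generated in-well by GAPDH (100nM final) in 100mM TEA pH 7.6, 5mM MgCl2, 0.01% Tween-20. After 60 minutes at room temperature, ATP was read by Kinase-Glo Plus luminescence end-point.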

[9] = qHTS for Inhibitors of WRN Helicase: Thiazole Orange DNA Binding Counterscreen (AID 720499); conditions: thiazole orange DNA binding displacement, fluorescence;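 also: drop in dye fluorescence marks compound binding to DNA; potency is read from the fitted curve at half-maximal effect; nearly all actives have a fitted effect of over 60% in size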
How it was run: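 To exclude WRN hits acting through DNA binding, fluorescence of 100 nM thiazole orange bound to 50 nM unlabeled DNA is read (ex 480, em 530 nm) 15 min after compound addition at room temperature.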

[10] = qHTS assay for small molecule agonists of the antioxidant response element (ARE) signaling pathway (AID 651741; active = well fitted activation curve with a large enough effect in the signal ratio; inconclusive = small, poorly fitted or top-dose-only effect, or effect the other way, or a change in a side signal; the % refers to the signal ratio; also: potency is read from the fitted curve at half-maximal effect); conditions: HepG2 ARE-bla reporter, beta-lactamase FRET ratio, 16 h; activation: at 96 µM (top of the series)
How it was run: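 HepG2 ARE-bla reporter cells, 2,000/well; 5 h settle at 37 C/5% CO2; compound pin transfer (23 nL, DMSO); 16 h at 37 C; LiveBLAzer B/G FRET substrate, 2 h RT; fluorescence intensity read.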

[11] = qHTS assay for small molecule activators of the p53 signaling pathway (AID 651743; active = well fitted activation curve with a large enough effect in the signal ratio, not every such curve was filed as active; inconclusive = small, poorly fitted or top-dose-only effect, or a change in a side signal; the % refers to the signal ratio; also: potency is read from the fitted curve at half-maximal effect); conditions: HCT-116 p53RE-bla, beta-lactamase FRET ratio, 16 h; activation: hits give high values
How it was run: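 Reporter: beta-lactamase driven by p53 response elements, stably integrated in HCT-116 cells. Cells seeded at 4,000/well, 5 h preincubation, compound (DMSO) 16 h at 37 C; B/G FRET substrate 2 h RT; fluorescence intensity read.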

[12] = qHTS assay to identify small molecules that stimulate interleukin-8 (IL-8) secretion (AID 651758; active = well fitted activation curve with a large enough effect in the signal ratio; inconclusive = small, poorly fitted or top-dose-only effect, or effect the other way, or a change in a side signal; the % refers to the signal ratio); conditions: HTRF ratio (665/615); activation: at 92.2 µM (top of the series)
How it was run: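 Compounds are added to THP-1 cells (2000 per well) and left 16 hrs at 37 C. A labeled anti-IL-8 antibody pair is then added, and IL-8 secretion is measured by time-resolved FRET after 1-3 hrs at room temperature.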

[13] = target: Nuclear receptor ROR-gamma (Homo sapiens) (UniProt P51449); assay: qHTS assay for small molecule antagonists of the retinoid-related orphan receptor gamma (ROR-gamma) signaling pathway (AID 651802); also: potency is read from the fitted curve at half-maximal effect; nearly all actives have a fitted effect of over 60% in size
How it was run: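 Luciferase read-out: ONE-Glo luminescence after 30 min at room temperature, following 16hr doxycycline induction at 37C, 5% CO2 of CHO cells with TET-inducible ROR and RORE-LUC reporter; decreased luminescence = reduced reporter activity.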

Question: Which Potency [1] does the source give for CC[C@@H](CO)NC(=O)[C@@H]1C=C2c3cccc4[nH]cc(c34)C[C@H]2N(C)C1 here?
Answer: active: 0.0052 µM

Question: With NC(CO)(CO)CCc1ccc(Sc2cccc(OCc3ccccc3)c2)cc1Cl as the molecule, how does the Potency [2] read?
Answer: inconclusive: 33.2 µM [activator, single point]

Question: What about the Potency [3] of the same molecule?
Answer: inconclusive: 29.8 µM [inhibitor, single point]

Question: What about the Potency [4] of the same molecule?
Answer: inconclusive: 54.7 µM [inhibitor, single point]

Question: What does the source list for C[C@@H]1[C@@H](C(=O)C[C@H]2O[C@@H]3O[C@]4(C)CC[C@@H]5[C@H](C)CC[C@@H]([C@H]2C)[C@@]35OO4)O[C@@H]2O[C@]3(C)CC[C@H]4[C@H](C)CC[C@@H]1[C@@]24OO3?
Answer: Potency [5]: inactive; Potency [2]: inactive; Potency [6]: inconclusive: 0.0418 µM [activator, full curve]

Question: For CC(=O)Nc1ccc(OC[C@](C)(O)C(=O)Nc2ccc([N+](=O)[O-])c(C(F)(F)F)c2)cc1, which Potency [5] is on record?
Answer: inactive

Question: Which results are given for Cc1sc2c(c1C)C(c1ccc(Cl)cc1)=N[C@@H](CC(=O)OC(C)(C)C)c1nnc(C)n1-2?
Answer: Potency [5]: inactive; Potency [3]: inconclusive: 4.21 µM [inhibitor, partial curve]; Potency [6]: active: 0.469 µM

Question: For Cn1c(CCCC(=O)O)nc2cc(N(CCCl)CCCl)ccc21, which Potency [5] is on record?
Answer: inactive

Question: And the Potency [7]?
Answer: inactive

Question: Which results are given for COc1ccc2c(c[n+](C)c3c4cc5c(cc4ccc23)OCO5)c1OC?
Answer: Potency [2]: inconclusive: 33.2 µM [activator, single point]; Potency [3]: inconclusive: 29.8 µM [inhibitor, single point]; Potency [6]: inconclusive: 1.66 µM [activator, partial curve, poor fit]

Question: For Cc1ccccc1-n1c(Cn2cnc3c(N)ncnc32)nc2cccc(C)c2c1=O, which Potency [6] is on record?
Answer: inconclusive: 0.469 µM [activator, full curve]

Question: What about the Potency [4] of the same molecule?
Answer: inactive

Question: With CC(C)[C@]12O[C@H]1[C@@H]1O[C@]13[C@]1(O[C@H]1C[C@H]1C4=C(CC[C@@]13C)C(=O)OC4)[C@@H]2O as the molecule, how does the Potency [6] read?
Answer: active: 0.0132 µM

Question: With Cn1cc(C2=C(c3cn(C4CCN(Cc5ccccn5)CC4)c4ccccc34)C(=O)NC2=O)c2ccccc21 as the molecule, how does the Potency [3] read?
Answer: active: 6.68 µM

Question: And the Potency [7]?
Answer: inconclusive: 33.2 µM [activator, single point]

Question: With CCCN1CCC[C@@H]2Cc3nc(N)ncc3C[C@H]21 as the molecule, how does the Potency [1] read?
Answer: inconclusive: 9.2 µM [inhibitor, partial curve, poor fit]

Question: Which results are given for CN(C)CCN(C)CCc1ccc(Cl)c(Cl)c1?
Answer: Potency [3]: inconclusive: 14.9 µM [inhibitor, partial curve, poor fit]; Potency [4]: inactive

Question: Which Potency [3] does the source give for Cc1nc(-c2ccc(-c3ccc(C(=O)N4CCc5cc6c(cc54)C4(CCN(C)CC4)CO6)cc3)c(C)c2)no1 here?
Answer: inconclusive: 18.8 µM [inhibitor, partial curve]

Question: And the Potency [6]?
Answer: inconclusive: 33.2 µM [activator, single point]

Question: And the Potency [7]?
Answer: inconclusive: 33.2 µM [activator, single point]

Question: And the Potency [4]?
Answer: inconclusive: 34.5 µM [inhibitor, partial curve]

Question: What does the source list for O=c1c(O)c(-c2ccc(O)c(O)c2)oc2cc(O)cc(O)c12?
Answer: Potency [6]: inconclusive: 20.9 µM [activator, single point]; Potency [7]: inconclusive: 23.5 µM [activator, partial curve, poor fit]; Potency [8]: inconclusive: 1.83 µM [inhibitor, full curve]; Potency [9]: inconclusive: 3.04 µM [inhibitor, full curve]

Question: Which results are given for CNC(=O)N1N=C(c2ccc(N)cc2)c2cc3c(cc2CC1C)OCO3 (stereo not given)?
Answer: Potency [6]: active: 18.7 µM; Potency [7]: inactive; Potency [4]: inconclusive: 34.5 µM [inhibitor, partial curve]

Question: With C[C@@H]1[C@@H](CC(C[C@H]2O[C@@H]3O[C@]4(C)CC[C@@H]5[C@H](C)CC[C@@H]([C@H]2C)[C@@]35OO4)C[S+](=O)([O-])c2ccc(COC(=O)N(C)C)cc2)O[C@@H]2O[C@]3(C)CC[C@H]4[C@H](C)CC[C@@H]1[C@@]24OO3 (stereo not given in full) as the molecule, how does the Potency [3] read?
Answer: inconclusive: 2.66 µM [inhibitor, partial curve]

Question: Which Potency [1] does the source give for COc1ccc(C(CN(C)C)C2(O)CCCCC2)cc1 (stereo not given) here?
Answer: inconclusive: 5.17 µM [inhibitor, partial curve]

Question: Which Potency [3] does the source give for CO[C@@H](C(=O)N1Cc2[nH]nc(NC(=O)c3ccc(N4CCN(C)CC4)cc3)c2C1)c1ccccc1 here?
Answer: active: 11.9 µM

Question: What about the Potency [6] of the same molecule?
Answer: active: 13.2 µM

Question: For COC[C@H]1OC(=O)c2coc3c2[C@@]1(C)C1=C(C3=O)C2CCC(=O)[C@@]2(C)C[C@H]1OC(C)=O (stereo not given in full), which Potency [5] is on record?
Answer: inconclusive: 18.7 µM [inhibitor, partial curve]

Question: What about the Potency [6] of the same molecule?
Answer: inconclusive: 4.18 µM [activator, partial curve, poor fit]

Question: Which results are given for C[C@]12C/C(=C/O)C(=O)C[C@@H]1CC[C@@H]1[C@@H]2CC[C@@]2(C)[C@H]1CC[C@]2(C)O?
Answer: Potency [10]: active: 6.86 µM and active: 7.5 µM; Potency [11]: inconclusive: 63.1 µM [side channel, falling, single point]; Potency [12]: inactive; Potency [13]: inconclusive: 33.5 µM [inhibitor, partial curve, poor fit]
